Measured values from publication PMC6389858.
Negatives hold for the conditions tested. Protein sequences can lack the tags named with them.

Target: T1, OxyR (UniProt P0ACQ4)
T1 sequence (looked up): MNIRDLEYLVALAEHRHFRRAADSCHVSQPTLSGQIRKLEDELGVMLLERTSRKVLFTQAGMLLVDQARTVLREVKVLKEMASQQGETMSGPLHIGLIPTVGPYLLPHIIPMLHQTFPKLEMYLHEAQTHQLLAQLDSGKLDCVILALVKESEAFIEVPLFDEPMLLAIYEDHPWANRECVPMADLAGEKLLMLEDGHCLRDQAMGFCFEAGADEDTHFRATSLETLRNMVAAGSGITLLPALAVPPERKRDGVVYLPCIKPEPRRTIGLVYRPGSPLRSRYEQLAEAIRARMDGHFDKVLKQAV
Experiment: EMSA
Details: poly dI-dC, same conditions as PelaB-S, EMSA: 10 mM HEPES pH 7.3, 20 mM KCl, 1 mM MgCl2, 5% glycerol, NP-40, 25 C, 2 h, 6% DNA retardation gel, recombinant protein, residues 1-305, protein details: C-terminal His6, label: biotin 3' end, probe letters rebuilt from the primers and the genome

TCTCGTTCTCCATTTGCGTAAAACCTGTCACTAACTCCCCATGGACACACACAGTCCGACCTGAAGTTTACTCTCAAGAATCCCAATGTGTGGGATACCATCTTCTTCATAGACCTCCGTCACAGGGATAAAACCGAAACTCTGGTAGAAGTTTTGCAGATGCGCCTGCGCCCCGAGGTAAACAGGCTTATCAGGCCAGT (double strand) [PelaB-SM (mutated OxyR binding site 2)]
binding result: no binding
